Assay results from patent publication US20110229560A1.
Results are given in words; binding and its absence hold for the method and conditions named. In cells and extracts the contact can be indirect. Some binding calls cover weakened binding; strength is not graded here. For some of these results: Sequences can lack the tags named with a protein.

Sequences of proteins named here, by UniProt entry; tags and fusion partners are left off. A change or cut given only in a name is not applied to a line headed by its entry.
UniProt Q86WI3: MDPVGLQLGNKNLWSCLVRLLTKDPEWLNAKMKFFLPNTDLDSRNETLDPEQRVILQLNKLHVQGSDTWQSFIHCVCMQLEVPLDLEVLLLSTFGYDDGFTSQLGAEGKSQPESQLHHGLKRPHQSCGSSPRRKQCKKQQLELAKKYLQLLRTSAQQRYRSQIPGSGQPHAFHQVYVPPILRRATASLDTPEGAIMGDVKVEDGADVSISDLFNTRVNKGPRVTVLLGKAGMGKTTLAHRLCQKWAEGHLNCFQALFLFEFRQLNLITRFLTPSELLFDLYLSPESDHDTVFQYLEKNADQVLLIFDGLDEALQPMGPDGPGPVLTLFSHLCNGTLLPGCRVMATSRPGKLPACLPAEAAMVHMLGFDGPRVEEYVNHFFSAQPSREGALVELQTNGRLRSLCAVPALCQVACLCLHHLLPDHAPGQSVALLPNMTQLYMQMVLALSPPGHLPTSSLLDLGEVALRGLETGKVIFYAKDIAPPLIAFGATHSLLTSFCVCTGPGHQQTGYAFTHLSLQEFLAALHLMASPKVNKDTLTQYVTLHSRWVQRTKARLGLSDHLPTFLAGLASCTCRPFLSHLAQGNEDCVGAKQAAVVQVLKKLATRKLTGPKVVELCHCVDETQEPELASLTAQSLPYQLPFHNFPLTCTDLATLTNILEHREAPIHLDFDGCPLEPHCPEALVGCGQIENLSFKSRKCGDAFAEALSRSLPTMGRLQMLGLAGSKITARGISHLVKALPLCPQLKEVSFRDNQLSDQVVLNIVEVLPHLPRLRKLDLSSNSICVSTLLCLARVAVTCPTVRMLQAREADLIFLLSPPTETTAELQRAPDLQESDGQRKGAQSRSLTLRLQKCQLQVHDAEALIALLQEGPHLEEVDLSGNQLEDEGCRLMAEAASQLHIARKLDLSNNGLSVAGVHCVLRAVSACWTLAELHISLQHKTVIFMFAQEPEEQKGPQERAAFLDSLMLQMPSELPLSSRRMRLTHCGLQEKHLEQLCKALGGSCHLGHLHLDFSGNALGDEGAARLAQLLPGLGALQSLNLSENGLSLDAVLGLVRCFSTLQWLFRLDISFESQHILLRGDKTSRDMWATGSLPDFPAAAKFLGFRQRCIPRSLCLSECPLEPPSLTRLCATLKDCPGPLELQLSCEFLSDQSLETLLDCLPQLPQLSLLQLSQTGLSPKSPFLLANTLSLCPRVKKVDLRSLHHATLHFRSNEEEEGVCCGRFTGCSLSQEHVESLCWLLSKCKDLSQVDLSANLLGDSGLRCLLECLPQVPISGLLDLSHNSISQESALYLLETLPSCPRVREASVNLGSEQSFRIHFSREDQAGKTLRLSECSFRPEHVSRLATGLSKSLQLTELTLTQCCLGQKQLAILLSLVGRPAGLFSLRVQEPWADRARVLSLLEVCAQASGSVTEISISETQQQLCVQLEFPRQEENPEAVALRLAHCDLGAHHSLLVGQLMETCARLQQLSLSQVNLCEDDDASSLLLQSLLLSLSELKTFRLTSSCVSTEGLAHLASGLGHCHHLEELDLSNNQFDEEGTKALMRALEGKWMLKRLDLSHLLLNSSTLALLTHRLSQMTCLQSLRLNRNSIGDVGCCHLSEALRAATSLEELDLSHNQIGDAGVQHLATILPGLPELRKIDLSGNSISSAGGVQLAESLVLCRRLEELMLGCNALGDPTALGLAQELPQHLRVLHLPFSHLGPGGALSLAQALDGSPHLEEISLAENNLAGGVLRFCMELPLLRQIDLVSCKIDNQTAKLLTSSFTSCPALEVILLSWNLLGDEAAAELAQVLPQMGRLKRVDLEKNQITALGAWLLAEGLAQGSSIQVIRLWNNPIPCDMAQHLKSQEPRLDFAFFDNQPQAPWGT

How the values were obtained:
[1] = molecular target: T1, Flag-tagged IKKβ (full length) (UniProt O14920); assay: co-IP (anti-HA beads) and Western blot (anti-Flag), transfected 293T cells, FIG. 7A
T1 sequence (looked up): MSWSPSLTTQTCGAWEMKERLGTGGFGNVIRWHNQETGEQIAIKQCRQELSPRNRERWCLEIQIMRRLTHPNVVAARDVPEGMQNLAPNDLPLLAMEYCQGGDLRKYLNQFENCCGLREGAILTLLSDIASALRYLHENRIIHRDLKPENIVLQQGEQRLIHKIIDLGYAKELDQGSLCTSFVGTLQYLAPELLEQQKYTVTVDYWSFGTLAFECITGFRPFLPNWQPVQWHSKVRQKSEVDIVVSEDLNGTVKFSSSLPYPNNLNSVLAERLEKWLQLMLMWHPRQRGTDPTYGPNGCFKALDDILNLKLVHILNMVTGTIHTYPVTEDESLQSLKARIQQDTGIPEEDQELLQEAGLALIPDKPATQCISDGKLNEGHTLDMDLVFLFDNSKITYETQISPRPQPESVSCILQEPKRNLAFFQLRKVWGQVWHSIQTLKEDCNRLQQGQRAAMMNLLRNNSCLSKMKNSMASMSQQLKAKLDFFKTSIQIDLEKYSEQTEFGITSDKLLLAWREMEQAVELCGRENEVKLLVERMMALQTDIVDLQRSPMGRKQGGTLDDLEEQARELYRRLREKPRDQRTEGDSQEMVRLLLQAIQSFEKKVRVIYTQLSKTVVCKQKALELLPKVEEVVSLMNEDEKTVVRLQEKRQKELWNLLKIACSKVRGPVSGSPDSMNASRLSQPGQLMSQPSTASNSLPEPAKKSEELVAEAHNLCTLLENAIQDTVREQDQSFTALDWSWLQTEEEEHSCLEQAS

Flag-tagged IKKα [2] = molecular target: T2, Flag-tagged IKKα (UniProt O15111); assay: as above
T2 sequence (looked up): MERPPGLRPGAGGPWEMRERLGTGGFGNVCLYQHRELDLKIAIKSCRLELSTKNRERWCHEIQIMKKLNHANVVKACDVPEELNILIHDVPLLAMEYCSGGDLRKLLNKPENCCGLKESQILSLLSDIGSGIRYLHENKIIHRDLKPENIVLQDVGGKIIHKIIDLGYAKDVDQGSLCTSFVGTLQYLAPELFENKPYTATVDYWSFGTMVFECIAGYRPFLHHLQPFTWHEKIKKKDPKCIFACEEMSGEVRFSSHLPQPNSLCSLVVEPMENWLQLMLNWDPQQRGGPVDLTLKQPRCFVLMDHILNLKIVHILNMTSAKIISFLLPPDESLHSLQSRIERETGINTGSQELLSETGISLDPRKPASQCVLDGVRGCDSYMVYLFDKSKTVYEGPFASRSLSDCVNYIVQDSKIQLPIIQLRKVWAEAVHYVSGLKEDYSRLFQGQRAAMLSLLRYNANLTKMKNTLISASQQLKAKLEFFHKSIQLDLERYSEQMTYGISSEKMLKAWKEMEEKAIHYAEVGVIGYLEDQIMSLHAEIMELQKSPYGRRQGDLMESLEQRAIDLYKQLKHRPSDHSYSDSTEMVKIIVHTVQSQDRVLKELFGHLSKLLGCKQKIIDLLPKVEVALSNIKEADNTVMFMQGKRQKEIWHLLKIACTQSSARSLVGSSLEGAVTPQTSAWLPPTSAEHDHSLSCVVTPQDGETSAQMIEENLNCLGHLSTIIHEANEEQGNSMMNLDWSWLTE

[3] = molecular target: T3, MDA5 (expressed in 293T cells) (UniProt Q9BYX4); assay: co-IP (anti-HA beads) and Western blot (anti-MDA5), transfected 293T cells
T3 sequence (looked up): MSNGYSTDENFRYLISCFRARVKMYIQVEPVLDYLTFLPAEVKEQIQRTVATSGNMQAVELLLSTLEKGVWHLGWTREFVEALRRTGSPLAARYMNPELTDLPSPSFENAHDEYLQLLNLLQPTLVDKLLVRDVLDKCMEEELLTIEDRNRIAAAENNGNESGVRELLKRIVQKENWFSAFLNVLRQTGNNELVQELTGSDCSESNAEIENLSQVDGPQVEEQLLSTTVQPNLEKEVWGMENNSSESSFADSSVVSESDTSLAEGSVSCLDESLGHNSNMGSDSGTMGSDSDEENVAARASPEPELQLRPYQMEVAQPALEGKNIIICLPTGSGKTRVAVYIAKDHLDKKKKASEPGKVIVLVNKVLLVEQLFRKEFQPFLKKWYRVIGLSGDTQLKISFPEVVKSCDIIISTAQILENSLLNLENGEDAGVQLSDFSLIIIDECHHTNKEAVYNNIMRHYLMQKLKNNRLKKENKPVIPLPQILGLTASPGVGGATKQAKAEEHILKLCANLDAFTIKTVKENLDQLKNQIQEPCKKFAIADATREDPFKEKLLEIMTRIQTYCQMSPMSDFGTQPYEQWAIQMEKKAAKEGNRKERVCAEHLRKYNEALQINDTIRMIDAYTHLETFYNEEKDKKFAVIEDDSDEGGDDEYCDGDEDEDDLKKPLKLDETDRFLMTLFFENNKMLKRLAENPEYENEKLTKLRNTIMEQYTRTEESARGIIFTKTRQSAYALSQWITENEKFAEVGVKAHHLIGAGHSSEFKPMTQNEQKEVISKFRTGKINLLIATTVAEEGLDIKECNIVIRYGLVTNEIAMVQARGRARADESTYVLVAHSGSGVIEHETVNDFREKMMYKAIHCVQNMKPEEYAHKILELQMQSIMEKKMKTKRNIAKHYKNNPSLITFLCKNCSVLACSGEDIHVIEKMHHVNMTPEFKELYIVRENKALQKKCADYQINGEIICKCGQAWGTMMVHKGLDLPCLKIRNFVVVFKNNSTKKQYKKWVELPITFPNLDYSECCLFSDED

Flag-tagged IKKα [4] = molecular target: T2, Flag-tagged IKKα; assay: restatement of the co-IP results

Measured: binding

HA-tagged NLRC5 (human NLRC5, full length) (from UniProt Q86WI3 1-1866)
binds: all assays above
